The list shows a part of the results.
molecular target: T1, OsSMF1 (Oryza sativa, UniProt Q6ZLB0 1-436); test: protein-binding microarray (RPBM); PBS, 2% BSA, 51.3 ng/ul salmon testes DNA, 50 uM zinc acetate, 200 nM TF, 25 C, 1 h; high values mean tight binding; details: protein: recombinant; tags: N-terminal polyhistidine and DsRed monomer fusion (pET32a); chain copies: 2; label: CyDye5-dUTP incorporated in the synthesized complementary strand; 3' TTTTT single-stranded linker to array surface; dsDNA, one strand shown
T1 sequence: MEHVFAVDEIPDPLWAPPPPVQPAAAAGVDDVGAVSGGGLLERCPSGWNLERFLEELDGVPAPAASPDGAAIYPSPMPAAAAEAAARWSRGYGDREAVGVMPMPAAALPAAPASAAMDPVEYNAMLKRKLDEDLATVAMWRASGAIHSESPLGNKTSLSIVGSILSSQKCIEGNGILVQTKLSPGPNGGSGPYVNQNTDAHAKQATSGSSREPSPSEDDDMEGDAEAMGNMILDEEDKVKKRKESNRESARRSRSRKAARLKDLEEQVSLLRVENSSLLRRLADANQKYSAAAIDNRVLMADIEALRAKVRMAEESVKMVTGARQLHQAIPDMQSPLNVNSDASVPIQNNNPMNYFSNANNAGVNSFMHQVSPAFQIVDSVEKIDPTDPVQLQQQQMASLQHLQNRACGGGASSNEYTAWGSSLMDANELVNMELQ
Procedure, shortened: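 Binding signal here means per-feature fluorescence intensity in arbitrary units. The values were read on an Axon 4000B scanner after a custom Agilent array, double-stranded by primer extension with Cy5-dUTP, was incubated with 200 nM protein at 25 °C for 1 h in PBS with 2% BSA, salmon testes DNA and 50 µM zinc acetate, then washed. The proteins were transcription factors with an N-terminal polyhistidine tag and DsRed, expressed in E. coli BL21-CodonPlus and purified on Ni–NTA.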

**Q.** How did the binding signal turn out when “TGACTGACTCGCGCCACGCATATGGCGGGAGGAGGGAGGTCGGAGTCACCTAGTGCAG” was run?
**A.** 3550 fluorescence intensity (a.u.)

**Q.** “AAGGTTTGGCTGAGTTGGGGAAGCGCGTCAGAGTAGCAGACGGAGTCACCTAGTGCAG” was tested. Which binding signal did it give?
**A.** 3700 fluorescence intensity (a.u.)

**Q.** For “ATAAAGACCTAGTCAATGGAGTGCCACGTAGGCACCACGTCGGAGTCACCTAGTGCAG”, which binding signal is on record?
**A.** 39000 fluorescence intensity (a.u.)

**Q.** How did the binding signal turn out when “AGTTTGGTTGAAAATTGGAACGATGTGATTAAAAGTTTGTCGGAGTCACCTAGTGCAG” was run?
**A.** 16500 fluorescence intensity (a.u.)

**Q.** With “CTTGGTTTTCTTGATTTCTTGGGTTCTTGGCTACTGGGGCCGGAGTCACCTAGTGCAG” as the sequence, how does the binding signal read?
**A.** 3440 fluorescence intensity (a.u.)

**Q.** “GAGGTGGATTTGGGGAAAACCCGTCGCCGACGTCAGCGCCCGGAGTCACCTAGTGCAG” was tested. Which binding signal did it give?
**A.** 8800 fluorescence intensity (a.u.)

**Q.** “CCTTTCTATAGCGTAGACGTCAGTATAGTTCTTGCTTTGGCGGAGTCACCTAGTGCAG” was tested. Which binding signal did it give?
**A.** 26400 fluorescence intensity (a.u.)

**Q.** With “AAGGTCAGCTAAAGATTATGTTGTTTGTAGTTTCTAGATGCGGAGTCACCTAGTGCAG” as the sequence, how does the binding signal read?
**A.** 3390 fluorescence intensity (a.u.)

**Q.** With “TGCCGATCATTGACGCGTCCTCGTTGGGTTCTGTCCCAGCCGGAGTCACCTAGTGCAG” as the sequence, how does the binding signal read?
**A.** 4610 fluorescence intensity (a.u.)

**Q.** For “GATGCCTACGTGGAGACATGTTGTGTGGCCAACTGGGGTCCGGAGTCACCTAGTGCAG”, which binding signal is on record?
**A.** 7920 fluorescence intensity (a.u.)

**Q.** Which binding signal does the source give for “AGGAGATTAGGATTCAGAGATGAGTCGCTTTTGTACTATACGGAGTCACCTAGTGCAG” here?
**A.** 3620 fluorescence intensity (a.u.)

**Q.** For “ACTCGTACTAGTATATGACTCGAGCAGTTCGATCCACCAGCGGAGTCACCTAGTGCAG”, which binding signal is on record?
**A.** 3980 fluorescence intensity (a.u.)

**Q.** Which binding signal does the source give for “TGTTTCTTACTGCCATCTCATCGTCCCCTTTCGCCATGGCCGGAGTCACCTAGTGCAG” here?
**A.** 4000 fluorescence intensity (a.u.)

**Q.** How did the binding signal turn out when “TAAATGAAAGAAGGGAAATCTCCCGTCTCTTTGTCTCCTGCGGAGTCACCTAGTGCAG” was run?
**A.** 3540 fluorescence intensity (a.u.)

**Q.** “TCGTCGCCTACGTGCCACCCACCAGGGACGTCTCGTGGCTCGGAGTCACCTAGTGCAG” was tested. Which binding signal did it give?
**A.** 6220 fluorescence intensity (a.u.)

**Q.** Which binding signal does the source give for “TTGGTCTACGTGACGTACACGTGGCATCCCAATTAGCGTTCGGAGTCACCTAGTGCAG” here?
**A.** 26200 fluorescence intensity (a.u.)

**Q.** “GAATACAGGATACACGACGATCTCATGGGATACCTGCCCTCGGAGTCACCTAGTGCAG” was tested. Which binding signal did it give?
**A.** 23700 fluorescence intensity (a.u.)

**Q.** Which binding signal does the source give for “ACCATCCTAGTCATTGGGTTGGAAATGACCTACTTATTATCGGAGTCACCTAGTGCAG” here?
**A.** 6870 fluorescence intensity (a.u.)

**Q.** For “AGCATCCTACATTTAGGATTAATACATGACTACAGATTTGCGGAGTCACCTAGTGCAG”, which binding signal is on record?
**A.** 3200 fluorescence intensity (a.u.)

**Q.** For “AGACGGAGGAGGACAAGGACATAGGGGAGGAGGGGCGAGGCGGAGTCACCTAGTGCAG”, which binding signal is on record?
**A.** 3270 fluorescence intensity (a.u.)

**Q.** How did the binding signal turn out when “TCTCGCCGCGACGCCACACGACACGACACGCGACGACGCGCGGAGTCACCTAGTGCAG” was run?
**A.** 3250 fluorescence intensity (a.u.)

**Q.** How did the binding signal turn out when “TTTTGTGCGCACAACACGTAACACGTATGGCCGGGGTATACGGAGTCACCTAGTGCAG” was run?
**A.** 3240 fluorescence intensity (a.u.)

**Q.** How did the binding signal turn out when “CGTGCAGACGTGATCCCTGCACCAAATTAATCCCACCTTACGGAGTCACCTAGTGCAG” was run?
**A.** 3850 fluorescence intensity (a.u.)

**Q.** “CGAATTTCAGCTATTTCTAAATTGTATTTTGATGTGGACTCGGAGTCACCTAGTGCAG” was tested. Which binding signal did it give?
**A.** 3900 fluorescence intensity (a.u.)

**Q.** Which binding signal does the source give for “CACATGGTCTTTTCACCATTGACACGGCACCCACATCGAACGGAGTCACCTAGTGCAG” here?
**A.** 6470 fluorescence intensity (a.u.)

**Q.** How did the binding signal turn out when “ACCATTGAGTCATTGACCATGCCTAGTTTACAACAACATTCGGAGTCACCTAGTGCAG” was run?
**A.** 3800 fluorescence intensity (a.u.)

**Q.** Which binding signal does the source give for “CGTCCGTACGTCTGCGTCTGCAGCCTTCCGTTTCGTTTTCCGGAGTCACCTAGTGCAG” here?
**A.** 3350 fluorescence intensity (a.u.)

**Q.** For “CGAAGAGATGAGATATATGTTTCCACGTAAGTAGGTCATACGGAGTCACCTAGTGCAG”, which binding signal is on record?
**A.** 7340 fluorescence intensity (a.u.)

**Q.** Which binding signal does the source give for “TTGTCCAGGGCCAATATATCCTCCGGCCACGCTCATGCTGCGGAGTCACCTAGTGCAG” here?
**A.** 3430 fluorescence intensity (a.u.)

**Q.** How did the binding signal turn out when “ATGGTTAGCATTAATCACTAATCACGTCATCATTAGTGCTCGGAGTCACCTAGTGCAG” was run?
**A.** 4040 fluorescence intensity (a.u.)

**Q.** How did the binding signal turn out when “TATCCCGTACGCGCGCTCGATCATCAGCTTGCATAGTCACCGGAGTCACCTAGTGCAG” was run?
**A.** 5620 fluorescence intensity (a.u.)

**Q.** For “TCGTATTGGGCCGTGACTGGGCCATGTGTGCAGCACGTGGCGGAGTCACCTAGTGCAG”, which binding signal is on record?
**A.** 4180 fluorescence intensity (a.u.)

**Q.** For “AATATTATGCAAATAATGTGAGCGTTGATGATTGCATATGCGGAGTCACCTAGTGCAG”, which binding signal is on record?
**A.** 3720 fluorescence intensity (a.u.)

**Q.** With “TGCAATCTATATAAATGAACAGTTATGTATATTTCTTGTTCGGAGTCACCTAGTGCAG” as the sequence, how does the binding signal read?
**A.** 7650 fluorescence intensity (a.u.)

**Q.** “CTCGCCGCTCACCAGCATCGCGTCGGTGGCACGTGGCGGTCGGAGTCACCTAGTGCAG” was tested. Which binding signal did it give?
**A.** 8850 fluorescence intensity (a.u.)

**Q.** How did the binding signal turn out when “CCTATATGCGCGCAGCCGTGACGCGATGCGCACCATGTTGCGGAGTCACCTAGTGCAG” was run?
**A.** 7650 fluorescence intensity (a.u.)

**Q.** With “TTCGCATCGGCGTTGCTTCCAACGAGAGGGAGGGAGGGAGCGGAGTCACCTAGTGCAG” as the sequence, how does the binding signal read?
**A.** 28900 fluorescence intensity (a.u.)

**Q.** With “GGAGGAGGAGGAGGGAGAGGGTGGTGTAGTGGGAGCGGCCCGGAGTCACCTAGTGCAG” as the sequence, how does the binding signal read?
**A.** 3460 fluorescence intensity (a.u.)

**Q.** Which binding signal does the source give for “CTTTGCGCCTTCGCGCAGCCGCGTAATCTCGTCTGCCCTCCGGAGTCACCTAGTGCAG” here?
**A.** 3600 fluorescence intensity (a.u.)

**Q.** For “GCCTGCGTACGTACTTGGCGTCAACCTCAGCAGTCTTGCGCGGAGTCACCTAGTGCAG”, which binding signal is on record?
**A.** 3530 fluorescence intensity (a.u.)

**Q.** For “CGGATGGGCTCGGGAGTTTGCCGTCGGCGACGTGGTGTCCCGGAGTCACCTAGTGCAG”, which binding signal is on record?
**A.** 3950 fluorescence intensity (a.u.)

**Q.** Which binding signal does the source give for “GACCCTGTCGCCCACCTCTGGGGCGGCAAGCTGACGTGGCCGGAGTCACCTAGTGCAG” here?
**A.** 27700 fluorescence intensity (a.u.)

— paper PMC7819943, “Rice protein-binding microarrays: a tool to detect cis-acting elements near promoter regions in rice”
